Experimental data from article PMC12599624.

Protein sequences, listed by entry. Tags and fused reporters are not part of them. Residues count along the entry.
UniProt Q13283: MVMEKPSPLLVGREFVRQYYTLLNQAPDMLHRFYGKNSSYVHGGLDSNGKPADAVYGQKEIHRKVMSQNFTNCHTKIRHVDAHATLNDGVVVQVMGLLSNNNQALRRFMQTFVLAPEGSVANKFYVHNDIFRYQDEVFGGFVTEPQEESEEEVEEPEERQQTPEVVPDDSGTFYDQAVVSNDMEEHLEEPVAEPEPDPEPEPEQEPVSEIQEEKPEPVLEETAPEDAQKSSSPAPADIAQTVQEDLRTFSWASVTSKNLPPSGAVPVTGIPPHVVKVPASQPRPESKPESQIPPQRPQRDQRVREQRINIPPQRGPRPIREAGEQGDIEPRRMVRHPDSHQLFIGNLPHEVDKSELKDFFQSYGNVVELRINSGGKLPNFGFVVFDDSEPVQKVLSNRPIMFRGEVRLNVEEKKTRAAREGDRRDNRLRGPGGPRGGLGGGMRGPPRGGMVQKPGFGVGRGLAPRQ
UniProt Q92598: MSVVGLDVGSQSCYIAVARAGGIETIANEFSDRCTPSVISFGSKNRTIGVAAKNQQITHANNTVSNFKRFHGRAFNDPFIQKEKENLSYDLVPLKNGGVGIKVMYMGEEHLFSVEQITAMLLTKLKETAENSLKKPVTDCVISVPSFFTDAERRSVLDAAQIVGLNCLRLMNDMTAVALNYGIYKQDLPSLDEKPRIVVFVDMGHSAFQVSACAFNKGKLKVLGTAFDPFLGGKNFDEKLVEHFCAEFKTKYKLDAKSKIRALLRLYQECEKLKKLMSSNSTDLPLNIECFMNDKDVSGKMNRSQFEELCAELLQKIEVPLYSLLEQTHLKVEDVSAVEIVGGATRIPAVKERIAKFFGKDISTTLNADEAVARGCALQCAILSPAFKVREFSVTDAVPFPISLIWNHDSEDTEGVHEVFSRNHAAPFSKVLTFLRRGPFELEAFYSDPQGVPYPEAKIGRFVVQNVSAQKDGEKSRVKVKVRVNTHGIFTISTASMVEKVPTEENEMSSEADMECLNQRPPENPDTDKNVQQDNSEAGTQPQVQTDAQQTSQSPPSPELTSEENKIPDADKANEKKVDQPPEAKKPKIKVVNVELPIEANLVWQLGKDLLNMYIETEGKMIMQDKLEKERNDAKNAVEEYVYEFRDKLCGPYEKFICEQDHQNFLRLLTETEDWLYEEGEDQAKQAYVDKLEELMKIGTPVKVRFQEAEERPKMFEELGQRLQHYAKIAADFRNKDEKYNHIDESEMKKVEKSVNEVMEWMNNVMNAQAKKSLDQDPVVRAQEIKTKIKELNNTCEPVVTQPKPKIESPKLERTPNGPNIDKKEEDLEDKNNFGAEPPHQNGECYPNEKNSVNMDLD
UniProt P22314: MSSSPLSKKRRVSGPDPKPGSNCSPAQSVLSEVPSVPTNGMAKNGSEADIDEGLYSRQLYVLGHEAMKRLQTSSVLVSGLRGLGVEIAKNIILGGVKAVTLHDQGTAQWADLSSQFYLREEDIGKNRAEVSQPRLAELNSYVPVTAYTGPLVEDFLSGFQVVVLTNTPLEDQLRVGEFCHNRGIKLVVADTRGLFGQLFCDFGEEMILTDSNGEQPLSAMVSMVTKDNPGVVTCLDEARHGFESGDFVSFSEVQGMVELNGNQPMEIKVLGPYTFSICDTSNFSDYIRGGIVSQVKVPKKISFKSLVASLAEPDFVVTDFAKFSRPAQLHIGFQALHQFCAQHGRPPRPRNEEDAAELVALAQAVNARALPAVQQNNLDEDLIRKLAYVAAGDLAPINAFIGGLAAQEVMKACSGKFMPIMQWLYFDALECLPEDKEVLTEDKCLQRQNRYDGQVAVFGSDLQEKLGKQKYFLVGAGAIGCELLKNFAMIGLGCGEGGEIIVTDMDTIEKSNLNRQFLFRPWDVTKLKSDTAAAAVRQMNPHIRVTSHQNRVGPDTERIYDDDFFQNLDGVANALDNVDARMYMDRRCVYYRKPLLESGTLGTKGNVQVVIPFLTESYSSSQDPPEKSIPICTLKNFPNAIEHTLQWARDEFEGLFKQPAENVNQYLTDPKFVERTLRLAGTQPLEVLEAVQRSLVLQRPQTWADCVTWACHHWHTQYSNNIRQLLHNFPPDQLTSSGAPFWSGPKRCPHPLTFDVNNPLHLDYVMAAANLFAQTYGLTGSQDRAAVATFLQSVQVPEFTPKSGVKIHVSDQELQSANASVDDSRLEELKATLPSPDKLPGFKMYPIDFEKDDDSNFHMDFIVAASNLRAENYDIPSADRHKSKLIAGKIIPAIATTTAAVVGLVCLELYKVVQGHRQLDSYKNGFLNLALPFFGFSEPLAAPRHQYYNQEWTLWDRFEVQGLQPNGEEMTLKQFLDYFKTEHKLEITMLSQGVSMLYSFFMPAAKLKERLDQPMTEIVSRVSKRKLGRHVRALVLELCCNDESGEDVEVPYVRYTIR
UniProt Q8TEM1, residues 27-1887: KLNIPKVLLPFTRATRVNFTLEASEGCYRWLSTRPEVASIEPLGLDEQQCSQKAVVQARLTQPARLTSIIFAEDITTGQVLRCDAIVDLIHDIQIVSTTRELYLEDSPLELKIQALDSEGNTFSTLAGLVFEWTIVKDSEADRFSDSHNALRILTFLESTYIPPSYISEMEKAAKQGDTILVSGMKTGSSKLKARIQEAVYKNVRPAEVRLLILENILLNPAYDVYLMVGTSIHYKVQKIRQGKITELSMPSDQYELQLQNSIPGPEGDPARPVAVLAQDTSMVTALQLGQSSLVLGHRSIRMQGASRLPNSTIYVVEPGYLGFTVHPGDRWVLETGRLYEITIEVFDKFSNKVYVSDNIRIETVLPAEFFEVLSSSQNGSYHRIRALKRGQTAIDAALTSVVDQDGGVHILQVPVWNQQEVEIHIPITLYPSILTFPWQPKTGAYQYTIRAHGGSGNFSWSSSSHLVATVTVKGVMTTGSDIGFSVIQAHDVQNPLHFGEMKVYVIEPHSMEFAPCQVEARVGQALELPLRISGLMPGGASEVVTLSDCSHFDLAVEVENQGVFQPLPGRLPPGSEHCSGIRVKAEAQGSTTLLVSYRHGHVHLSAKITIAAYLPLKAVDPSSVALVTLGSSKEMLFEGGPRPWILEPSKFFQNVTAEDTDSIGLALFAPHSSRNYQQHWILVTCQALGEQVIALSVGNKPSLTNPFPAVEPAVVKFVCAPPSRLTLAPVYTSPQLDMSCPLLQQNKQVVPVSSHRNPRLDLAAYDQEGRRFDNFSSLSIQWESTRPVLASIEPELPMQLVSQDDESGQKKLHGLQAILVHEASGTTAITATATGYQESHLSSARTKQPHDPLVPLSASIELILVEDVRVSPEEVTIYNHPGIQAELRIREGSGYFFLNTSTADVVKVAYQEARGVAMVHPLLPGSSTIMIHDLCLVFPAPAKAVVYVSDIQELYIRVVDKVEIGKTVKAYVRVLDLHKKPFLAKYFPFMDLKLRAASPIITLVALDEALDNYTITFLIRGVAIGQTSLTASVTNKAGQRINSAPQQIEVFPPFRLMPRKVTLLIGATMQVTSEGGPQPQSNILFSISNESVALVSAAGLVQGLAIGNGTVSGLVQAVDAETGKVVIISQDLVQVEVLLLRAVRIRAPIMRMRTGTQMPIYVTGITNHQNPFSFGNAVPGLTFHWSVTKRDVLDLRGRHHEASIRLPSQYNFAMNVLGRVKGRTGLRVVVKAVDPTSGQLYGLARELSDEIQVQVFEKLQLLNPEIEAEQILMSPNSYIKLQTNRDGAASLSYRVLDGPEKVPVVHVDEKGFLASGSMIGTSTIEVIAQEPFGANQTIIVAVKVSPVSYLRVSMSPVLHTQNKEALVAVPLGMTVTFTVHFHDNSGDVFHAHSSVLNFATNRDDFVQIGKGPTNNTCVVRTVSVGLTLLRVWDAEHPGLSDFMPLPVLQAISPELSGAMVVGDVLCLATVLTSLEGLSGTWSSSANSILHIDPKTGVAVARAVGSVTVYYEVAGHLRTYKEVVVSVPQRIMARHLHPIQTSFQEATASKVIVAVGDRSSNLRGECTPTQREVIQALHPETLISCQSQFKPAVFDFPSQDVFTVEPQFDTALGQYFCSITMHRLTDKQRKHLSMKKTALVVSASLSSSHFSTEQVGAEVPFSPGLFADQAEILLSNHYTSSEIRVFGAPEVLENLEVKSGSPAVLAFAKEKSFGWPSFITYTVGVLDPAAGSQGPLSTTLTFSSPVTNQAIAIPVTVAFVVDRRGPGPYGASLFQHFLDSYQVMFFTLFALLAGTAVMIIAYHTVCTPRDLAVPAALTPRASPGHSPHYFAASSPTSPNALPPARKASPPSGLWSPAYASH

B1: SEPT9 (protein, UniProt Q9UHD8 1-586)
chain: MKKSYSGGTRTSSGRLRRLGDSSGPALKRSFEVEEVETPNSTPPRRVQTPLLRATVASSTQKFQDLGVKNSEPSARHVDSLSQRSPKASLRRVELSGPKAAEPVSRRTELSIDISSKQVENAGAIGPSRFGLKRAEVLGHKTPEPAPRRTEITIVKPQESAHRRMEPPASKVPEVPTAPATDAAPKRVEIQMPKPAEAPTAPSPAQTLENSEPAPVSQLQSRLEPKPQPPVAEATPRSQEATEAAPSCVGDMADTPRDAGLKQAPASRNEKAPVDFGYVGIDSILEQMRRKAMKQGFEFNIMVVGQSGLGKSTLINTLFKSKISRKSVQPTSEERIPKTIEIKSITHDIEEKGVRMKLTVIDTPGFGDHINNENCWQPIMKFINDQYEKYLQEEVNINRKKRIPDTRVHCCLYFIPATGHSLRPLDIEFMKRLSKVVNIVPVIAKADTLTLEERVHFKQRITADLLSNGIDVYPQKEFDEDSEDRLVNEKFREMIPFAVVGSDHEYQVNGKRILGRKTKWGTIEVENTTHCEFAYLRDLLIRTHMQNIKDITSSIHFEAYRVKRLNEGSSAMANGMEEKEPEAPEM
B2: nucleoporin Nup107 (protein, UniProt P57740 1-925)
chain: MDRSGFGEISSPVIREAEVTRTARKQSAQKRVLLQASQDENFGNTTPRNQVIPRTPSSFRQPFTPTSRSLLRQPDISCILGTGGKSPRLTQSSGFFGNLSMVTNLDDSNWAAAFSSQRSGLFTNTEPHSITEDVTISAVMLREDDPGEAASMSMFSDFLQSFLKHSSSTVFDLVEEYENICGSQVNILSKIVSRATPGLQKFSKTASMLWLLQQEMVTWRLLASLYRDRIQSALEEESVFAVTAVNASEKTVVEALFQRDSLVRQSQLVVDWLESIAKDEIGEFSDNIEFYAKSVYWENTLHTLKQRQLTSYVGSVRPLVTELDPDAPIRQKMPLDDLDREDEVRLLKYLFTLIRAGMTEEAQRLCKRCGQAWRAATLEGWKLYHDPNVNGGTELEPVEGNPYRRIWKISCWRMAEDELFNRYERAIYAALSGNLKQLLPVCDTWEDTVWAYFRVMVDSLVEQEIQTSVATLDETEELPREYLGANWTLEKVFEELQATDKKRVLEENQEHYHIVQKFLILGDIDGLMDEFSKWLSKSRNNLPGHLLRFMTHLILFFRTLGLQTKEEVSIEVLKTYIQLLIREKHTNLIAFYTCHLPQDLAVAQYALFLESVTEFEQRHHCLELAKEADLDVATITKTVVENIRKKDNGEFSHHDLAPALDTGTTEEDRLKIDVIDWLVFDPAQRAEALKQGNAIMRKFLASKKHEAAKEVFVKIPQDSIAEIYNQCEEQGMESPLPAEDDNAIREHLCIRAYLEAHETFNEWFKHMNSVPQKPALIPQPTFTEKVAHEHKEKKYEMDFGIWKGHLDALTADVKEKMYNVLLFVDGGWMVDVREDAKEDHERTHQMVLLRKLCLPMLCFLLHTILHSTGQYQECLQLADMVSSERHKLYLVFSKEELRKLLQKLRESSLMLLDQGLDPLGYEIQL
B3: nucleoporin Nup93 (protein, UniProt Q8N1F7 1-819)
chain: MDTEGFGELLQQAEQLAAETEGISELPHVERNLQEIQQAGERLRSRTLTRTSQETADVKASVLLGSRGLDISHISQRLESLSAATTFEPLEPVKDTDIQGFLKNEKDNALLSAIEESRKRTFGMAEEYHRESMLVEWEQVKQRILHTLLASGEDALDFTQESEPSYISDVGPPGRSSLDNIEMAYARQIYIYNEKIVNGHLQPNLVDLCASVAELDDKSISDMWTMVKQMTDVLLTPATDALKNRSSVEVRMEFVRQALAYLEQSYKNYTLVTVFGNLHQAQLGGVPGTYQLVRSFLNIKLPAPLPGLQDGEVEGHPVWALIYYCMRCGDLLAASQVVNRAQHQLGEFKTWFQEYMNSKDRRLSPATENKLRLHYRRALRNNTDPYKRAVYCIIGRCDVTDNQSEVADKTEDYLWLKLNQVCFDDDGTSSPQDRLTLSQFQKQLLEDYGESHFTVNQQPFLYFQVLFLTAQFEAAVAFLFRMERLRCHAVHVALVLFELKLLLKSSGQSAQLLSHEPGDPPCLRRLNFVRLLMLYTRKFESTDPREALQYFYFLRDEKDSQGENMFLRCVSELVIESREFDMILGKLENDGSRKPGVIDKFTSDTKPIINKVASVAENKGLFEEAAKLYDLAKNADKVLELMNKLLSPVVPQISAPQSNKERLKNMALSIAERYRAQGISANKFVDSTFYLLLDLITFFDEYHSGHIDRAFDIIERLKLVPLNQESVEERVAAFRNFSDEIRHNLSEVLLATMNILFTQFKRLKGTSPSSSSRPQRVIEDRDSQLRSQARTLITFAGMIPYRTSGDTNARLVQMEVLMN

biological target: Ras GTPase-activating protein-binding protein 1 (G3BP1) (human (endogenous in iPSC-derived motor neurons)) (UniProt Q13283); experiment: affinity purification with mass spectrometry; immunoprecipitation with monoclonal mouse anti-G3BP1 antibody and Protein A microbeads from 300 ug lysate (SDS-free RIPA buffer) of iPSC-derived motor neurons (control, C9-1, C9-2), untreated or treated with 500 uM sodium arsenite for 1 h; on-column trypsin digestion, label-free quantitative proteomics

| Molecule | binding |
| --- | --- |
| HSPH1 (from UniProt Q92598 1-858) | binds |
| UBA1 (from UniProt P22314 1-1058) | binds |
| nucleoporin Nup210 (from UniProt Q8TEM1 27-1887) | binds |
| B1 | binds |
| B2 | binds |
| B3 | binds |

Results are given in words; binding and its absence hold for the method and conditions named. Binding seen in cells or lysates may run through a third protein. These calls come from enrichment with a bait or labelling near it, and not all partners need be listed.
